{"source": "ChEMBL document CHEMBL4513161", "about": "“CO-ADD screening of MMV (CH) - Pandemic Response Box” (2021)", "key": {"[1]": {"test_system": "Staphylococcus aureus", "conditions": "ASSAY_TEST Inhibition of Bacterial Growth; detection method Absorption (OD600); MEDIA CAMHB; plate type 384well; NBS; CORNING #3640; time 18 hr"}, "[2]": {"test_system": "Escherichia coli", "conditions": "ASSAY_TEST Inhibition of Bacterial Growth; detection method Absorption (OD600); MEDIA CAMHB; plate type 384well; NBS; CORNING #3640; time 18 hr"}, "[3]": {"test_system": "Klebsiella pneumoniae", "conditions": "ASSAY_TEST Inhibition of Bacterial Growth; detection method Absorption (OD600); MEDIA CAMHB; plate type 384well; NBS; CORNING #3640; time 18 hr"}, "[4]": {"test_system": "Pseudomonas aeruginosa", "conditions": "ASSAY_TEST Inhibition of Bacterial Growth; detection method Absorption (OD600); MEDIA CAMHB; plate type 384well; NBS; CORNING #3640; time 18 hr"}, "[5]": {"test_system": "Acinetobacter baumannii", "conditions": "ASSAY_TEST Inhibition of Bacterial Growth; detection method Absorption (OD600); MEDIA CAMHB; plate type 384well; NBS; CORNING #3640; time 18 hr"}, "[6]": {"test_system": "Candida albicans", "conditions": "ASSAY_TEST Inhibition of Fungal Growth; detection method Absorption (OD530); plate type 384well; NBS; CORNING #3640"}}}
{"smiles": "Cl.Clc1ccc(COC(Cn2ccnc2)c2ccc(Cl)cc2Cl)c(Cl)c1", "note": "(stereo unspecified)", "values": [{"measurement": "MIC", "setting": "[1]", "value": ">20", "unit": "µM"}, {"measurement": "MIC", "setting": "[2]", "value": ">20", "unit": "µM"}, {"measurement": "MIC", "setting": "[3]", "value": ">20", "unit": "µM"}, {"measurement": "MIC", "setting": "[4]", "value": ">20", "unit": "µM"}, {"measurement": "MIC", "setting": "[5]", "value": ">20", "unit": "µM"}, {"measurement": "MIC", "setting": "[6]", "value": "<=0.1562 uM"}]}
